Source: the supplement of paper PMC11546906
Counter-ions that a name gives are not always drawn. Some of the results follow. Single values are uncertain here, since repeats match poorly.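 FDA-approved drugs were each paired with colistin at one-eighth its MIC and screened against a multidrug-resistant, mcr-1-positive clinical E. coli isolate, with OD600 read after 24 h. Drug-free bacteria served as growth control, plain broth as blank. Combinations were active if OD600 dropped below 0.2.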

tested on: Escherichia coli 42 (mcr-1-positive clinical isolate); assay: OD600 after 24 h growth with compound plus colistin (absorbance units (OD600)); higher = more bacterial growth (less inhibition); conditions: first compound 25 µM; colistin concentration 0.5 ug/mL; incubation time 24 h; 37 °C

OD600, inactive:
Clc1ccc(C(c2ccccc2Cl)C(Cl)Cl)cc1 (stereo not given) [Mitotane] + CCC(C)CCCC(=O)N[C@@H](CCN)C(=O)N[C@H](C(=O)N[C@@H](CCN)C(=O)N[C@H]1CCNC(=O)[C@H]([C@@H](C)O)NC(=O)[C@H](CCN)NC(=O)[C@H](CCN)NC(=O)[C@H](CC(C)C)NC(=O)[C@@H](CC(C)C)NC(=O)[C@H](CCN)NC1=O)[C@@H](C)O [colistin] 1.01
CC(=O)N[C@@H](CS)C(=O)O [Acetylcysteine] + CCC(C)CCCC(=O)N[C@@H](CCN)C(=O)N[C@H](C(=O)N[C@@H](CCN)C(=O)N[C@H]1CCNC(=O)[C@H]([C@@H](C)O)NC(=O)[C@H](CCN)NC(=O)[C@H](CCN)NC(=O)[C@H](CC(C)C)NC(=O)[C@@H](CC(C)C)NC(=O)[C@H](CCN)NC1=O)[C@@H](C)O [colistin] 0.799
NC(N)=O + CCC(C)CCCC(=O)N[C@@H](CCN)C(=O)N[C@H](C(=O)N[C@@H](CCN)C(=O)N[C@H]1CCNC(=O)[C@H]([C@@H](C)O)NC(=O)[C@H](CCN)NC(=O)[C@H](CCN)NC(=O)[C@H](CC(C)C)NC(=O)[C@@H](CC(C)C)NC(=O)[C@H](CCN)NC1=O)[C@@H](C)O [colistin] 0.961
N#C/C(=C1/SC[C@@H](c2ccc(Cl)cc2Cl)S1)n1ccnc1 [Luliconazole] + CCC(C)CCCC(=O)N[C@@H](CCN)C(=O)N[C@H](C(=O)N[C@@H](CCN)C(=O)N[C@H]1CCNC(=O)[C@H]([C@@H](C)O)NC(=O)[C@H](CCN)NC(=O)[C@H](CCN)NC(=O)[C@H](CC(C)C)NC(=O)[C@@H](CC(C)C)NC(=O)[C@H](CCN)NC1=O)[C@@H](C)O [colistin] 1.06
CC(C)(C(=O)c1cccnc1)c1cccnc1 [Metyrapone] + CCC(C)CCCC(=O)N[C@@H](CCN)C(=O)N[C@H](C(=O)N[C@@H](CCN)C(=O)N[C@H]1CCNC(=O)[C@H]([C@@H](C)O)NC(=O)[C@H](CCN)NC(=O)[C@H](CCN)NC(=O)[C@H](CC(C)C)NC(=O)[C@@H](CC(C)C)NC(=O)[C@H](CCN)NC1=O)[C@@H](C)O [colistin] 0.818
CC1(C)S[C@@H]2[C@H](NC(=O)COc3ccccc3)C(=O)N2[C@H]1C(=O)O [Penicillin V Potassium] + CCC(C)CCCC(=O)N[C@@H](CCN)C(=O)N[C@H](C(=O)N[C@@H](CCN)C(=O)N[C@H]1CCNC(=O)[C@H]([C@@H](C)O)NC(=O)[C@H](CCN)NC(=O)[C@H](CCN)NC(=O)[C@H](CC(C)C)NC(=O)[C@@H](CC(C)C)NC(=O)[C@H](CCN)NC1=O)[C@@H](C)O [colistin] 1.1
O=C(O)c1cc(-c2ccc(F)cc2F)ccc1O [Diflunisal] + CCC(C)CCCC(=O)N[C@@H](CCN)C(=O)N[C@H](C(=O)N[C@@H](CCN)C(=O)N[C@H]1CCNC(=O)[C@H]([C@@H](C)O)NC(=O)[C@H](CCN)NC(=O)[C@H](CCN)NC(=O)[C@H](CC(C)C)NC(=O)[C@@H](CC(C)C)NC(=O)[C@H](CCN)NC1=O)[C@@H](C)O [colistin] 0.931
CCOC(=O)N[C@@H]1CC[C@@H]2[C@@H](C1)C[C@H]1C(=O)O[C@H](C)[C@H]1[C@H]2/C=C/c1ccc(-c2cccc(F)c2)cn1 [Vorapaxar sulfate] + CCC(C)CCCC(=O)N[C@@H](CCN)C(=O)N[C@H](C(=O)N[C@@H](CCN)C(=O)N[C@H]1CCNC(=O)[C@H]([C@@H](C)O)NC(=O)[C@H](CCN)NC(=O)[C@H](CCN)NC(=O)[C@H](CC(C)C)NC(=O)[C@@H](CC(C)C)NC(=O)[C@H](CCN)NC1=O)[C@@H](C)O [colistin] 0.978
NNC(=O)c1ccncc1 [Isoniazid] + CCC(C)CCCC(=O)N[C@@H](CCN)C(=O)N[C@H](C(=O)N[C@@H](CCN)C(=O)N[C@H]1CCNC(=O)[C@H]([C@@H](C)O)NC(=O)[C@H](CCN)NC(=O)[C@H](CCN)NC(=O)[C@H](CC(C)C)NC(=O)[C@@H](CC(C)C)NC(=O)[C@H](CCN)NC1=O)[C@@H](C)O [colistin] 1.29
CC(C)COc1ccc(CNC(=O)N(Cc2ccc(F)cc2)C2CCN(C)CC2)cc1 [Pimavanserin] + CCC(C)CCCC(=O)N[C@@H](CCN)C(=O)N[C@H](C(=O)N[C@@H](CCN)C(=O)N[C@H]1CCNC(=O)[C@H]([C@@H](C)O)NC(=O)[C@H](CCN)NC(=O)[C@H](CCN)NC(=O)[C@H](CC(C)C)NC(=O)[C@@H](CC(C)C)NC(=O)[C@H](CCN)NC1=O)[C@@H](C)O [colistin] 1.04
c1ccc(Cc2nc3ccccc3[nH]2)cc1 [Bendazol] + CCC(C)CCCC(=O)N[C@@H](CCN)C(=O)N[C@H](C(=O)N[C@@H](CCN)C(=O)N[C@H]1CCNC(=O)[C@H]([C@@H](C)O)NC(=O)[C@H](CCN)NC(=O)[C@H](CCN)NC(=O)[C@H](CC(C)C)NC(=O)[C@@H](CC(C)C)NC(=O)[C@H](CCN)NC1=O)[C@@H](C)O [colistin] 1.2
CCN(CC)CCNC(=O)c1c(C)[nH]c(/C=C2\C(=O)Nc3ccc(F)cc32)c1C [Sunitinib Malate] + CCC(C)CCCC(=O)N[C@@H](CCN)C(=O)N[C@H](C(=O)N[C@@H](CCN)C(=O)N[C@H]1CCNC(=O)[C@H]([C@@H](C)O)NC(=O)[C@H](CCN)NC(=O)[C@H](CCN)NC(=O)[C@H](CC(C)C)NC(=O)[C@@H](CC(C)C)NC(=O)[C@H](CCN)NC1=O)[C@@H](C)O [colistin] 1.14
Cc1cc(C)nc(NS(=O)(=O)c2ccc(N)cc2)n1 [Sulfamethazine sodium] + CCC(C)CCCC(=O)N[C@@H](CCN)C(=O)N[C@H](C(=O)N[C@@H](CCN)C(=O)N[C@H]1CCNC(=O)[C@H]([C@@H](C)O)NC(=O)[C@H](CCN)NC(=O)[C@H](CCN)NC(=O)[C@H](CC(C)C)NC(=O)[C@@H](CC(C)C)NC(=O)[C@H](CCN)NC1=O)[C@@H](C)O [colistin] 0.95
COc1cc2nccc(Oc3ccc(NC(=O)NC4CC4)c(Cl)c3)c2cc1C(N)=O [Lenvatinib mesylate] + CCC(C)CCCC(=O)N[C@@H](CCN)C(=O)N[C@H](C(=O)N[C@@H](CCN)C(=O)N[C@H]1CCNC(=O)[C@H]([C@@H](C)O)NC(=O)[C@H](CCN)NC(=O)[C@H](CCN)NC(=O)[C@H](CC(C)C)NC(=O)[C@@H](CC(C)C)NC(=O)[C@H](CCN)NC1=O)[C@@H](C)O [colistin] 0.961
Nc1cccc2c1CN(C1CCC(=O)NC1=O)C2=O (stereo not given) [Lenalidomide] + CCC(C)CCCC(=O)N[C@@H](CCN)C(=O)N[C@H](C(=O)N[C@@H](CCN)C(=O)N[C@H]1CCNC(=O)[C@H]([C@@H](C)O)NC(=O)[C@H](CCN)NC(=O)[C@H](CCN)NC(=O)[C@H](CC(C)C)NC(=O)[C@@H](CC(C)C)NC(=O)[C@H](CCN)NC1=O)[C@@H](C)O [colistin] 1.1
Cc1ccc(C)c(OCCCC(C)(C)C(=O)O)c1 [Gemfibrozil] + CCC(C)CCCC(=O)N[C@@H](CCN)C(=O)N[C@H](C(=O)N[C@@H](CCN)C(=O)N[C@H]1CCNC(=O)[C@H]([C@@H](C)O)NC(=O)[C@H](CCN)NC(=O)[C@H](CCN)NC(=O)[C@H](CC(C)C)NC(=O)[C@@H](CC(C)C)NC(=O)[C@H](CCN)NC1=O)[C@@H](C)O [colistin] 0.856
COC(c1ccccc1)(c1ccccc1)[C@H](Oc1nc(C)cc(C)n1)C(=O)O [Ambrisentan] + CCC(C)CCCC(=O)N[C@@H](CCN)C(=O)N[C@H](C(=O)N[C@@H](CCN)C(=O)N[C@H]1CCNC(=O)[C@H]([C@@H](C)O)NC(=O)[C@H](CCN)NC(=O)[C@H](CCN)NC(=O)[C@H](CC(C)C)NC(=O)[C@@H](CC(C)C)NC(=O)[C@H](CCN)NC1=O)[C@@H](C)O [colistin] 0.88
COc1cc(C(C)=O)ccc1OCCCN1CCC(c2noc3cc(F)ccc23)CC1 [Iloperidone] + CCC(C)CCCC(=O)N[C@@H](CCN)C(=O)N[C@H](C(=O)N[C@@H](CCN)C(=O)N[C@H]1CCNC(=O)[C@H]([C@@H](C)O)NC(=O)[C@H](CCN)NC(=O)[C@H](CCN)NC(=O)[C@H](CC(C)C)NC(=O)[C@@H](CC(C)C)NC(=O)[C@H](CCN)NC1=O)[C@@H](C)O [colistin] 1.16
CC(N)C12CC3CC(CC(C3)C1)C2 (stereo not given) [Rimantadine hydrochloride] + CCC(C)CCCC(=O)N[C@@H](CCN)C(=O)N[C@H](C(=O)N[C@@H](CCN)C(=O)N[C@H]1CCNC(=O)[C@H]([C@@H](C)O)NC(=O)[C@H](CCN)NC(=O)[C@H](CCN)NC(=O)[C@H](CC(C)C)NC(=O)[C@@H](CC(C)C)NC(=O)[C@H](CCN)NC1=O)[C@@H](C)O [colistin] 1.1

Reprinted from the results shown for reference:
OD600, inactive:
NNC(=O)c1ccncc1 [Isoniazid] + CCC(C)CCCC(=O)N[C@@H](CCN)C(=O)N[C@H](C(=O)N[C@@H](CCN)C(=O)N[C@H]1CCNC(=O)[C@H]([C@@H](C)O)NC(=O)[C@H](CCN)NC(=O)[C@H](CCN)NC(=O)[C@H](CC(C)C)NC(=O)[C@@H](CC(C)C)NC(=O)[C@H](CCN)NC1=O)[C@@H](C)O [colistin] 1.29
CC(C)COc1ccc(CNC(=O)N(Cc2ccc(F)cc2)C2CCN(C)CC2)cc1 [Pimavanserin] + CCC(C)CCCC(=O)N[C@@H](CCN)C(=O)N[C@H](C(=O)N[C@@H](CCN)C(=O)N[C@H]1CCNC(=O)[C@H]([C@@H](C)O)NC(=O)[C@H](CCN)NC(=O)[C@H](CCN)NC(=O)[C@H](CC(C)C)NC(=O)[C@@H](CC(C)C)NC(=O)[C@H](CCN)NC1=O)[C@@H](C)O [colistin] 1.04

Next part:

OD600, active:
CC/C(=C(\c1ccccc1)c1ccc(OCCN(C)C)cc1)c1ccccc1 [Tamoxifen Citrate] + CCC(C)CCCC(=O)N[C@@H](CCN)C(=O)N[C@H](C(=O)N[C@@H](CCN)C(=O)N[C@H]1CCNC(=O)[C@H]([C@@H](C)O)NC(=O)[C@H](CCN)NC(=O)[C@H](CCN)NC(=O)[C@H](CC(C)C)NC(=O)[C@@H](CC(C)C)NC(=O)[C@H](CCN)NC1=O)[C@@H](C)O [colistin] 0.041
